Experimental findings from article PMC2572727, “The GET Complex Mediates Insertion of Tail-Anchored Proteins into the ER Membrane” (Cell, 2008) are described below.

Chains of the proteins cited; added tags and fusions are not shown. Residues count along the entry.
UniProt Q08144: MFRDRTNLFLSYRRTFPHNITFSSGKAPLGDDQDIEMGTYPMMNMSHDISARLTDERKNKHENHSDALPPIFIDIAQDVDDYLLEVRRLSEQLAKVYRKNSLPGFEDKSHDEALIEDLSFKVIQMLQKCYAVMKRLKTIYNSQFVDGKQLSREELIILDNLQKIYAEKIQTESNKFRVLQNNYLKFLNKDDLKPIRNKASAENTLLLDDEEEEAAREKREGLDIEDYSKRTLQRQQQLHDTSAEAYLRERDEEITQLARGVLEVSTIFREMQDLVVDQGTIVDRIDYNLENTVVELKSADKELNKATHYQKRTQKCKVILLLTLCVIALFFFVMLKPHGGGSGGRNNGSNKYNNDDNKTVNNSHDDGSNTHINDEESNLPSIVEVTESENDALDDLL
UniProt Q01590, residues 197-340: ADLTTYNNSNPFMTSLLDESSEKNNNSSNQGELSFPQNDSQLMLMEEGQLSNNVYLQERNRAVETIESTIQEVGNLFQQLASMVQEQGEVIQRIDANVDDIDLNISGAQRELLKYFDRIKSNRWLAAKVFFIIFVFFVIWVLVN
UniProt P22214: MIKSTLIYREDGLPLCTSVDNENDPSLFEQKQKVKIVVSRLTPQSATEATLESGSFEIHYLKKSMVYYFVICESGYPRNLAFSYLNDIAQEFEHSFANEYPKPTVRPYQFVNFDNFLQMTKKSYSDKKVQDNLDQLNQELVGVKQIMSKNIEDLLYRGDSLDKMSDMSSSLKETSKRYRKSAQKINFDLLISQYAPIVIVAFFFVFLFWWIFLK

Read-outs that look alike come from different tables or passages of the source. Results are given in words; binding and its absence hold for the method and conditions named. For some of these results: Binding seen in cells or lysates may run through a third protein. Some entries that bind do so weakly or less than the wild type.

The target in experiment [1] is T1, Get3 (yeast two-hybrid bait) (yeast) (UniProt Q12154).
T1 sequence: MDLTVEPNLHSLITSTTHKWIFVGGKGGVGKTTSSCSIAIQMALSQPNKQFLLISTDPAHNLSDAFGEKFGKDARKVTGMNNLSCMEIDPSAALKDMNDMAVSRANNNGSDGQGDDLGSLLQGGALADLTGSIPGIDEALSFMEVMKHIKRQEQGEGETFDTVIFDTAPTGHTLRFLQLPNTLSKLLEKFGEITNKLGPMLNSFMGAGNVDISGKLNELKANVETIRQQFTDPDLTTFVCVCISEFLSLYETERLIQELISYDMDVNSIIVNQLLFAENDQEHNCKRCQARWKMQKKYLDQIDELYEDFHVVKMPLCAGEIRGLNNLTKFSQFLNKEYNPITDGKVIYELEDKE
As to the kind of experiment: two-hybrid; Get3 as bait, genomic library or directed TA protein preys (with or without their TMDs); Gal4-driven HIS3 reporter, growth on medium lacking histidine.

In another experiment the target is Get2-HA (yeast) (UniProt P40056). As to the kind of experiment: co-purification; epitope-tagged versions of Get1 and Get2 copurified from yeast; details in the Supplemental Data.
In experiment [2] the target is T1, Get3 (yeast two-hybrid bait) (yeast). As to the kind of experiment: two-hybrid; Get3 as bait, genomic library or directed TA protein preys (with or without their TMDs); Gal4-driven HIS3 reporter, growth on medium lacking histidine. This is another data set of the same source.
For experiment [3], the target named is T2, Get1/Get2 complex (endogenous, in microsomes of the Δget3 strain) (yeast (endogenous in microsomes of the Δget3 strain)) (UniProt P53192+P40056).
T2 sequence 1: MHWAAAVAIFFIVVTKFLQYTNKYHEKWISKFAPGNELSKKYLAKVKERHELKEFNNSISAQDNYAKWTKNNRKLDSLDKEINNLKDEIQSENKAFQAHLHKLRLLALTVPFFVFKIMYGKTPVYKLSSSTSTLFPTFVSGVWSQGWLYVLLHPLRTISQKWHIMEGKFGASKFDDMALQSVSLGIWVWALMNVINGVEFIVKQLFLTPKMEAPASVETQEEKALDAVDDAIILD
T2 sequence 2: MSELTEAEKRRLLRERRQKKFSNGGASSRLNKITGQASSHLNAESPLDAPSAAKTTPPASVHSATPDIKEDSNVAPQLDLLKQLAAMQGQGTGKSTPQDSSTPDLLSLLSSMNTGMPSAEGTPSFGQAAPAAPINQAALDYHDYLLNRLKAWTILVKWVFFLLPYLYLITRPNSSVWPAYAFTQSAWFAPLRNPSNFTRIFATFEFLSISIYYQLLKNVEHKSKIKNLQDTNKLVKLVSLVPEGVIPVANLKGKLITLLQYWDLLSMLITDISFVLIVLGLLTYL
As to the kind of experiment: co-sedimentation; recombinant Get3 incubated with microsomes from Δget3 or Δget1/2/3 strains with or without ATP, 30°C for 1 hr; flotation in an Optiprep gradient (166,000 x g, 3 hr, 4°C) separating microsomes from unbound protein; fractions blotted with αGet3; only the binder purified.

Turning to “Tlg2 (two-hybrid prey) (from UniProt Q08144 1-397)”, in experiment [1], the binding result is reported as “binds”.

Regarding “Sed5_(197–340) (from UniProt Q01590 197-340) (domain or fragment)”, the binding result in experiment [1] is on record as “binds”.

Consider “Sec22 (two-hybrid prey) (from UniProt P22214 1-214)”, for which the binding entry in experiment [1] is “binds”.

B1: Get1-PC (protein, UniProt P53192 1-235)
chain: T2 sequence 1
For B1, the binding result in the experiment with Get2-HA (yeast) was “binds”.

B2: Fis1 (two-hybrid prey) (protein, UniProt P40515 1-155)
chain: MTKVDFWPTLKDAYEPLYPQQLEILRQQVVSEGGPTATIQSRFNYAWGLIKSTDVNDERLGVKILTDIYKEAESRRRECLYYLTIGCYKLGEYSMAKRYVDTLFEHERNNKQVGALKSMVEDKIQKETLKGVVVAGGVLAGAVAVASFFLRNKRR
B2: the binding result in experiment [2] is “no binding”.

B3: Pex15 (two-hybrid prey) (protein, UniProt Q08215 1-383)
chain: MAASEIMNNLPMHSLDSSLRDLLNDDLFIESDESTKSVNDQRSEVFQECVNLFIKRDIKDCLEKMSEVGFIDITVFKSNPMILDLFVSACDIMPSFTKLGLTLQSEILNIFTLDTPQCIETRKIILGDLSKLLVINKFFRCCIKVIQFNLTDHTEQEEKTLELESIMSDFIFVYITKMRTTIDVVGLQELIEIFIFQVKVKLHHKKPSPNMYWALCKTLPKLSPTLKGLYLSKDVSIEDAILNSIDNKIQKDKAKSKGKQRGVKQKIHHFHEPMLHNSSEEQVKVEDAFNQRTSTDSRLQSTGTAPRKKNNDITVLAGSFWAVLKHHFTRSVLNKNGLLLTGLLLLLCLKKYKSLMAIFKHVPAAFHTVYPQIVGLLKLLASI
In the case of B3, in experiment [2], the binding result is on record as “binds”.

B4: recombinant Get3 ATPase (enzyme, yeast, UniProt Q12154 1-354, looked up)
chain: T1 sequence
notes: Get3 (Arr4), yeast homolog of Asna1/TRC40, soluble cytosolic ATPase; also called Arr4; source: purified from Escherichia coli (Metz et al., 2006)
B4: in experiment [3], the binding result was “binds”.
